Assay results published in US20110110886A1, “SMALL MOLECULE INHIBITORS OF AUTOTAXIN AND METHODS OF USE” (Yale University, priority 2008, published 2011).
Some of these results come from one statement about several compounds together.

System: human melanoma cell line (A2058)
Assay: Boyden chamber cell migration assay, melanoma cells
Type: cell-based
Conditions: ATX (50 nM) or LPA (75 nM)
Protocol: All cell media was supplemented with 10% (v/v) fetal calf serum (FCS) (Gibco) and 1% (v/v) L-glutamine (Gibco) and grown at 37° C. in a humidified atmosphere containing 5% CO2.
The assay chambers are divided by a gelatin-coated membrane with […] pores (NeuroProbe). […] The chambers were then incubated at 37° C. for 4 hours, after which the filters were removed, fixed in 100% methanol, stained with a DiffQuick solution, and mounted onto glass slides. Non-migrating cells were removed from the membrane by scraping the top surface. The cells were quantitated by counting the cell number per high powered field in the various wells. Treatments were compared using a chi squared test.

Substance: lysophosphatidic acid [LPA]
- increase in number of migrating cells per high powered field over media alone: > 20 fold
